The campaign covered roughly 330,000 compounds. About 7,700 (2.3%) were called active. Inconclusive results, whose numbers are uncertain, are shown with a selection of clear calls. Calls follow the shape of the dose curve; as a rule, active = well fitted inhibition curve with a large enough effect; inconclusive = small, poorly fitted or top-dose-only effect, or effect the other way; inactive = flat fitted curve, though single readings scatter. Potencies of inconclusive entries are doubtful fits and often do not repeat.
Assay: qHTS screen for small molecules that inhibit ELG1-dependent DNA repair in human embryonic kidney (HEK293T) cells expressing luciferase-tagged ELG1; also: nearly all actives have a fitted effect of over 55% in size
Conditions: HEK293T ELG1-luciferase reporter, luminescence, 16 h, DNA damage induced by 5-fluorouridine; activity change, negative = inhibition: at 46.1 µM (top of the series)
Procedure, shortened: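 Cells (2,000 per well) received 5-fluorouridine plus test compound or DMSO and were incubated 16 hr at 37 °C, 5% CO2. Luciferase activity was read by luminescence 30 min after ONE-Glo addition; signal suppression marked inhibition of damage-induced ELG1 function.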
% is scaled to controls: 0 for no effect and ±100 for the full control effect; potency is read from the fitted curve at half-maximal effect.

| SMILES | activity change, negative = inhibition | Potency |
| --- | --- | --- |
| COCCNc1ccc([N+](=O)[O-])cc1C(=O)NC1CCCc2ccccc21 (configuration not stated) | inactive: -6.73% | – |
| CCn1c(=O)c(C(=O)NCc2ccccn2)c(O)c2ccccc21 | inactive: 7.51% | – |
| CC1CC(=O)N(CC(=O)Nc2cccc(F)c2)c2ccccc2S1(=O)=O (configuration not stated) | – | inconclusive: 29.1 µM [activator, single point] |
| C/C(=N\NC(=O)CN(c1ccccc1Br)S(C)(=O)=O)c1ccc2c(c1)OCCO2 | – | inconclusive: 18.4 µM [inhibitor, partial curve] |
| CCCCOc1ccc2c(C)cc(=O)oc2c1OCCCC | – | inconclusive: 29.1 µM [inhibitor, single point] |
| O=C(CSc1nc2cc(Cl)ccc2o1)c1cccs1 | – | inconclusive: 18.4 µM [activator, single point] |
| O=S(=O)(c1ccccc1)N1CCC(O)(CSc2ccc(Cl)cc2)CC1 | inactive: -5.81% | – |
| CCn1c(SCC(=O)Nc2cc3oc4ccccc4c3cc2OC)nnc1-c1cccs1 | – | active: 18.4 µM |
| CCOC(=O)c1ccc(NS(=O)(=O)c2c(C)nc3sccn3c2=O)cc1 | inactive: 9.13% | – |
| Cc1ccc(SCc2[nH]nc3c2C2(CCSCC2)C(C#N)=C(N)O3)cc1 | inactive: 4.42% | – |
| CCN1C(=O)C(C(=O)c2ccccc2)SC1=S (configuration not stated) | – | inconclusive: 29.1 µM [inhibitor, single point] |
| Cc1cc(/C=C2\C(=O)NN(c3ccccc3)C2=O)c(C)n1-c1ccccc1O | – | inconclusive: 3.66 µM [activator, partial curve] |
| Cc1ccc(NC(=O)c2cc3ccccc3o2)cc1Cl | – | inconclusive: 0.891 µM [activator, partial curve, poor fit] |
| Cc1cc(F)ccc1S(=O)(=O)N1CCCOC1CNC(=O)C(=O)NCCc1c[nH]c2ccccc12 (configuration not stated) | – | active: 18.4 µM |
| COc1ccc(N2C(=O)/C(=C/c3ccc([N+](=O)[O-])cc3)N=C2C)cc1 | inactive: -6.88% | – |
| CCCC[n+]1c(-c2ccc(Cl)cc2Cl)csc1Nc1ccccc1 | inactive: -8.65% | – |
| Cc1cc(C)cc(NC(=O)CCNC(=O)c2ccc([N+](=O)[O-])cc2)c1 | – | inconclusive: 2.31 µM [inhibitor, single point] |
| Cc1ccc(NC(=O)c2ccccc2)cc1 | – | inconclusive: 16.4 µM [activator, partial curve] |
| O=C(/C=C/c1ccco1)N1CCc2ccccc21 | – | inconclusive: 4.11 µM [activator, partial curve] |
| Cc1ccc(C(=O)OCC(=O)N2CCCC2)cc1 | – | inconclusive: 18.3 µM [activator, single point] |
| CCCCn1c(N)c(N(CCC(C)C)C(=O)c2ccc(N3CCCC3=O)cc2)c(=O)[nH]c1=O | inactive: 0.507% | – |
| COCCn1nnnc1C(c1cccs1)N1CCCC(C)C1 (configuration not stated) | – | inconclusive: 29.1 µM [inhibitor, single point] |
| C=CCCCCCCCCc1nc(SCC(C)=O)n[nH]1 | – | active: 23.1 µM |
| C=C(CC[C@@H](O)C(C)(C)O)[C@H]1CC[C@]2(C)[C@@H]1CCC1[C@@]3(C)CC[C@H](O)C(C)(C)C3CC[C@]12C (some centres not stated) | – | inconclusive: 18.3 µM [activator, partial curve, poor fit] |

| SMILES | activity change, negative = inhibition | Potency |
| --- | --- | --- |
| O=C(CSc1ncnc2sc3c(c12)CCCC3)N1CCC(c2noc3ccc(F)cc23)CC1 | inactive: -14.7% | – |
| Cc1ccc(CNC(=O)CCS(=O)(=O)c2ccc3c(c2)NC(=O)CS3)cc1 | inactive: 3.14% | – |
| CCOC(=O)CC(=O)CSc1ncnc2c1nnn2-c1ccc(OC)cc1 | inactive: 5.47% | – |
| CCOC(=O)N1CCc2c(sc3c2c(=O)n(-c2ccc(CC)cc2)c(=O)n3CC(=O)NCC2CCCO2)C1 (configuration not stated) | – | inconclusive: 25.9 µM [activator, single point] |
| CC1(C)Cc2c(sc3c2c(=N)n(Cc2ccco2)c(=O)n3CC(=O)Nc2cccc(Cl)c2)CO1 | – | inconclusive: 20.6 µM [inhibitor, partial curve, poor fit] |
| CCN(CC)CCN1C(=O)C(=O)/C(=C(/O)c2ccc(OCC(C)C)cc2)C1c1ccncc1 (configuration not stated) | – | inconclusive: 35.5 µM [inhibitor, single point] |
| COc1ccc(C(=O)NCC(c2cccs2)N2CCc3ccccc32)c(OC)c1 (configuration not stated) | – | inconclusive: 20.6 µM [inhibitor, single point] |
| Cc1cc(N/N=C/c2ccc(O)cc2)c2cccc(C)c2n1 | – | inconclusive: 0.231 µM [inhibitor, partial curve, poor fit] |
| CC(=O)CSc1cc(-c2ccccc2)nc2ncnn12 | inactive: 22.5% | – |
| CN1CCN(c2ccccc2NC(=O)c2ccc(Br)o2)CC1 | inactive: -14.3% | – |
| NNC(=O)c1cccn(Cc2cccc(C(F)(F)F)c2)c1=O | – | inconclusive: 23.1 µM [inhibitor, single point] |
| Cc1ccc(OCC(=O)N2CCCCCCC2)cc1 | – | inconclusive: 29.1 µM [activator, single point] |
| COC(=O)C1=C(C)NC(C)=C(C(=O)OCC2CCCO2)C1c1ccc(Cl)c([N+](=O)[O-])c1 (configuration not stated) | – | active: 10.3 µM |
| CN(CC(=O)Nc1ccc(Cl)c(C(F)(F)F)c1)C(=O)C1CC(=O)N(Cc2ccco2)C1 (configuration not stated) | – | inconclusive: 29.1 µM [inhibitor, single point] |
| CCOC(=O)N1CCN(CCC(=O)Nc2ccc(Br)c(C)c2)CC1 | – | inconclusive: 23.1 µM [inhibitor, partial curve] |
| Clc1ccccc1CO/N=C1\CCCc2nonc21 | – | inconclusive: 16.4 µM [activator, partial curve] |
| CC(=O)N(c1nc(CCl)cs1)c1ccc(C)cc1C | inactive: -1.53% | – |
| Cc1ccccc1Oc1ccc(Oc2ccccc2C)nn1 | – | inconclusive: 8.2 µM [activator, partial curve] |
| C/C(N)=C(/C#N)C(=O)CSc1ccc2c(c1)OCCO2 | – | inconclusive: 29.1 µM [activator, single point] |
| COc1ccc(-c2nn(-c3ccccc3)cc2C(=O)N2CCN(C(=O)c3ccco3)CC2)cc1 | – | inconclusive: 23.1 µM [inhibitor, partial curve] |
| S=c1[nH]c(-c2ccc(Cl)cc2)cs1 | – | inconclusive: 25.9 µM [activator, partial curve] |
| O=C(N/N=C/C(Br)=C\c1ccccc1)c1ccc2nc[nH]c2c1 | – | inconclusive: 23.1 µM [activator, single point] |
| C[N+]1(CC(=O)OCCCC2CCCCC2)CCCC1 | inactive: 3.79% | – |
| O=C(COC(=O)c1ccccc1O)Nc1ccc(N2CCOCC2)cc1 | inactive: 11.8% | – |

Grouped by structure, those above with a Cl atom

| SMILES | activity change, negative = inhibition | Potency |
| --- | --- | --- |
| O=C(CSc1nc2cc(Cl)ccc2o1)c1cccs1 | – | inconclusive: 18.4 µM [activator, single point] |
| O=S(=O)(c1ccccc1)N1CCC(O)(CSc2ccc(Cl)cc2)CC1 | inactive: -5.81% | – |
| Cc1ccc(NC(=O)c2cc3ccccc3o2)cc1Cl | – | inconclusive: 0.891 µM [activator, partial curve, poor fit] |
| CCCC[n+]1c(-c2ccc(Cl)cc2Cl)csc1Nc1ccccc1 | inactive: -8.65% | – |
| CC1(C)Cc2c(sc3c2c(=N)n(Cc2ccco2)c(=O)n3CC(=O)Nc2cccc(Cl)c2)CO1 | – | inconclusive: 20.6 µM [inhibitor, partial curve, poor fit] |
| COC(=O)C1=C(C)NC(C)=C(C(=O)OCC2CCCO2)C1c1ccc(Cl)c([N+](=O)[O-])c1 (configuration not stated) | – | active: 10.3 µM |
| CN(CC(=O)Nc1ccc(Cl)c(C(F)(F)F)c1)C(=O)C1CC(=O)N(Cc2ccco2)C1 (configuration not stated) | – | inconclusive: 29.1 µM [inhibitor, single point] |
| Clc1ccccc1CO/N=C1\CCCc2nonc21 | – | inconclusive: 16.4 µM [activator, partial curve] |
| CC(=O)N(c1nc(CCl)cs1)c1ccc(C)cc1C | inactive: -1.53% | – |
| S=c1[nH]c(-c2ccc(Cl)cc2)cs1 | – | inconclusive: 25.9 µM [activator, partial curve] |

The listing continues:

| SMILES | activity change, negative = inhibition | Potency |
| --- | --- | --- |
| CC(OC(=O)Cn1[nH]c(=O)c2ccccc2c1=O)C(=O)Nc1ccc(Cl)cn1 (configuration not stated) | inactive: 10% | – |
| COc1cc(OC)c(OC)cc1CN(C)CC1CCCN(CCc2ccccc2F)C1 (configuration not stated) | inactive: -4.67% | – |
| CCN(CCCNC(=O)C1CCN(S(=O)(=O)N2CCOCC2)CC1)c1cccc(C)c1 | inactive: -20.6% | – |
| O=C(CSC1=NCCS1)Nc1nc2ccccc2s1 | – | inconclusive: 13 µM [activator, partial curve] |
| O=C(Nc1ccsc1C(=O)O)c1cccc(Oc2ccccc2)c1 | – | inconclusive: 5.8 µM [activator, full curve] |
| CCC(C)c1ccc(NC(=O)N2CCOCC2)cc1 (configuration not stated) | – | inconclusive: 8.2 µM [activator, partial curve] |
| Cc1cc(C(=O)COC(=O)c2ccccc2O)c(C)n1CC1CCCO1 (configuration not stated) | – | inconclusive: 16.4 µM [inhibitor, partial curve, poor fit] |
| O=C(O)C1CCCCC1C(=O)Nc1ccc(-c2ccccc2)cc1 (configuration not stated) | – | inconclusive: 18.3 µM [activator, single point] |
| CN1CCN(CCCNC(=O)C2CC(=O)N(C3CCCCC3)C2)CC1 (configuration not stated) | inactive: 7.85% | – |
| CCOc1ccccc1C(=O)Nc1ccc(S(=O)(=O)Nc2nccc(C)n2)cc1 | inactive: 22.5% | – |
| CC1CCN(c2oc(-c3ccccc3Cl)nc2C#N)CC1 | – | inconclusive: 11.6 µM [activator, partial curve] |
| CCCCNC(=O)CCC(=O)Nc1ccc2nc(N3CCOCC3)cc(C)c2c1 | – | inconclusive: 23.1 µM [activator, partial curve, poor fit] |
| NNC(=O)c1n[nH]c(=O)c2ccccc12 | inactive: 1.67% | – |
| NC(=O)C(c1ccc(Br)cc1)c1ccc(C(=O)c2ccccc2)cc1 (configuration not stated) | – | inconclusive: 20.6 µM [inhibitor, partial curve, poor fit] |
| CCOC(=O)c1c(C)[nH]c(C(=O)OCC(=O)N2c3ccccc3CC2C)c1C (configuration not stated) | – | inconclusive: 23.1 µM [inhibitor, single point] |
| O=c1c2[nH]c3ccc(F)cc3c2nc2n1CCS2 | – | inconclusive: 18.3 µM [activator, single point] |
| CCN(CC)S(=O)(=O)c1cc(OC)c(C)cc1C | inactive: -13.3% | – |
| O=C(N/N=C/c1ccccc1C(F)(F)F)c1ccc2nc[nH]c2c1 | – | inconclusive: 5.8 µM [activator, partial curve] |
| Cc1nc(-c2cccc(C(F)(F)F)c2)sc1C(=O)O | – | inconclusive: 23.1 µM [activator, single point] |
| O=C(O)c1cccc(NC2=C(n3nnc4ccccc43)C(=O)c3ccccc3C2=O)c1 | – | inconclusive: 16.4 µM [inhibitor, single point] |
| Cc1ccc(OCc2cc(C(=O)NC(C)Cc3cccnc3)no2)cc1C (configuration not stated) | – | inconclusive: 23.1 µM [activator, single point] |
| CCOC(=O)c1cnc(SCc2nc(N)nc(Nc3ccc(C)cc3)n2)nc1N | – | inconclusive: 14.6 µM [inhibitor, partial curve, poor fit] |
| CCOc1ccc(-c2nnn(CC(=O)N3CCCC(C)C3)n2)cc1 (configuration not stated) | inactive: -6.1% | – |
| Cc1nnc(SCC(=O)NCC2COc3ccccc3O2)s1 (configuration not stated) | – | inconclusive: 2.91 µM [inhibitor, partial curve, poor fit] |

Entries of single compounds, looked up by structure. Values in the order: activity change, negative = inhibition | Potency
CC(OC(=O)Cn1[nH]c(=O)c2ccccc2c1=O)C(=O)Nc1ccc(Cl)cn1 (configuration not stated) reads inactive: 10% | –
CC1CCN(c2oc(-c3ccccc3Cl)nc2C#N)CC1 reads – | inconclusive: 11.6 µM [activator, partial curve]

— PubChem BioAssay AID504467 (National Center for Advancing Translational Sciences (NCATS), 2011)
